Here are results for 37 targets from the supplement of paper PMC11006884.

By UniProt entry, the sequences of proteins in these tests, tags left out. Where a name states a change or a piece, a line headed by the entry shows the natural chain unless it says otherwise.
UniProt Q9NR50: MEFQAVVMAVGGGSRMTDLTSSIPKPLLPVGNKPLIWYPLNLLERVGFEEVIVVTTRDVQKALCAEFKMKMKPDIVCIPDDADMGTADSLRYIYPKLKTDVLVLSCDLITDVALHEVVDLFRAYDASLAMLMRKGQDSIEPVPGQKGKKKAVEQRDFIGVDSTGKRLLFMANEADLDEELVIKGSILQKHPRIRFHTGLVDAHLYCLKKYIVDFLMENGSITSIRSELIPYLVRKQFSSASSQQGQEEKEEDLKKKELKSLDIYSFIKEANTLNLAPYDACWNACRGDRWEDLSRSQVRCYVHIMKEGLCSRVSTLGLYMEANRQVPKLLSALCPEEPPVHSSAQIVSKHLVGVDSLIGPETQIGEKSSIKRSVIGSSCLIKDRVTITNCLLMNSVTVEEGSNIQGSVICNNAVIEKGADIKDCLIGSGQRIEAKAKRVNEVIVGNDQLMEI
UniProt Q9NRF9: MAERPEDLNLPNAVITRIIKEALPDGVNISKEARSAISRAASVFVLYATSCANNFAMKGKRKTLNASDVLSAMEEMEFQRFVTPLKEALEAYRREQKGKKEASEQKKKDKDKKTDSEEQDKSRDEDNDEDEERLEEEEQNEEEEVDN
UniProt Q9NP81: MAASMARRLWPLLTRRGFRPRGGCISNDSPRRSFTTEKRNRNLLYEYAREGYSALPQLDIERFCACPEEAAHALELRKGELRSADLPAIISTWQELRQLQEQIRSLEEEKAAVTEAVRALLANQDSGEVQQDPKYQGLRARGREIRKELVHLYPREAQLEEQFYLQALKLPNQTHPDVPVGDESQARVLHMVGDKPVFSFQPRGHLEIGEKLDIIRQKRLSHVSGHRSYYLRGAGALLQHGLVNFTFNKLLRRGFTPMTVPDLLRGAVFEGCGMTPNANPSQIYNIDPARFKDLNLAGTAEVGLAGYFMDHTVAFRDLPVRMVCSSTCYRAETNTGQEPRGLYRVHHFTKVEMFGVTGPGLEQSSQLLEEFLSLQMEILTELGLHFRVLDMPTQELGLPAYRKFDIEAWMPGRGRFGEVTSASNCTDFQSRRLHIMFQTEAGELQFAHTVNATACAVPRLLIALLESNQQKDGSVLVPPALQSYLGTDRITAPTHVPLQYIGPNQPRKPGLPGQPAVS
UniProt Q9NSY1, whole entry, looked up: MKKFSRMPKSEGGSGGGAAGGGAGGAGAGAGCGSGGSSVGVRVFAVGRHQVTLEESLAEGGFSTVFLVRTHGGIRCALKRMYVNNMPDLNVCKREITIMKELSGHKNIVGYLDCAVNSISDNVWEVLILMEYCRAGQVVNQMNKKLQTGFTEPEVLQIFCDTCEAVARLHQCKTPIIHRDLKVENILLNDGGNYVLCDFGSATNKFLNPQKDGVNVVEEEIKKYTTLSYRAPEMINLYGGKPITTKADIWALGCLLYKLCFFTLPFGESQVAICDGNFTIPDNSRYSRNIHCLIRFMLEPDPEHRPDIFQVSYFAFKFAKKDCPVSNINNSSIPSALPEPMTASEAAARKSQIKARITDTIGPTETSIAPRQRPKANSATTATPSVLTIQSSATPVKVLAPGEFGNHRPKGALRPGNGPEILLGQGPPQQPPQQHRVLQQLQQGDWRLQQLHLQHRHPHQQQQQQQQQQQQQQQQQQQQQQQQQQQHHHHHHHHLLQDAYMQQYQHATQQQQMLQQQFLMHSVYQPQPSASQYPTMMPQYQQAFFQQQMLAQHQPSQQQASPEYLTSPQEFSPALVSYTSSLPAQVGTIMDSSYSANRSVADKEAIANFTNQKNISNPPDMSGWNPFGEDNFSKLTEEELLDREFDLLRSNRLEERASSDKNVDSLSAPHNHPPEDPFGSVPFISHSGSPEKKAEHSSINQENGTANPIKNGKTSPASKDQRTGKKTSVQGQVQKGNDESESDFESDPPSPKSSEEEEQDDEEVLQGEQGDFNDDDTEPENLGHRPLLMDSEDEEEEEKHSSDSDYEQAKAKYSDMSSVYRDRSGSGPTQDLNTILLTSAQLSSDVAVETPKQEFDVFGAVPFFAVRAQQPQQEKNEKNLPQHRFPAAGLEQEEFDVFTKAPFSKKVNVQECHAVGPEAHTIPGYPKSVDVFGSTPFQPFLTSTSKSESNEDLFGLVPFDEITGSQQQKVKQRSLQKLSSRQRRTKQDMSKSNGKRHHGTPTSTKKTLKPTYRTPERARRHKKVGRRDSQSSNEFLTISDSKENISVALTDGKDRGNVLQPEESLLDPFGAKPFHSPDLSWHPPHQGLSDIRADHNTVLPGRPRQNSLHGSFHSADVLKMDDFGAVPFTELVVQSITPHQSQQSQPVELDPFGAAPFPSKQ
UniProt Q9NSE4: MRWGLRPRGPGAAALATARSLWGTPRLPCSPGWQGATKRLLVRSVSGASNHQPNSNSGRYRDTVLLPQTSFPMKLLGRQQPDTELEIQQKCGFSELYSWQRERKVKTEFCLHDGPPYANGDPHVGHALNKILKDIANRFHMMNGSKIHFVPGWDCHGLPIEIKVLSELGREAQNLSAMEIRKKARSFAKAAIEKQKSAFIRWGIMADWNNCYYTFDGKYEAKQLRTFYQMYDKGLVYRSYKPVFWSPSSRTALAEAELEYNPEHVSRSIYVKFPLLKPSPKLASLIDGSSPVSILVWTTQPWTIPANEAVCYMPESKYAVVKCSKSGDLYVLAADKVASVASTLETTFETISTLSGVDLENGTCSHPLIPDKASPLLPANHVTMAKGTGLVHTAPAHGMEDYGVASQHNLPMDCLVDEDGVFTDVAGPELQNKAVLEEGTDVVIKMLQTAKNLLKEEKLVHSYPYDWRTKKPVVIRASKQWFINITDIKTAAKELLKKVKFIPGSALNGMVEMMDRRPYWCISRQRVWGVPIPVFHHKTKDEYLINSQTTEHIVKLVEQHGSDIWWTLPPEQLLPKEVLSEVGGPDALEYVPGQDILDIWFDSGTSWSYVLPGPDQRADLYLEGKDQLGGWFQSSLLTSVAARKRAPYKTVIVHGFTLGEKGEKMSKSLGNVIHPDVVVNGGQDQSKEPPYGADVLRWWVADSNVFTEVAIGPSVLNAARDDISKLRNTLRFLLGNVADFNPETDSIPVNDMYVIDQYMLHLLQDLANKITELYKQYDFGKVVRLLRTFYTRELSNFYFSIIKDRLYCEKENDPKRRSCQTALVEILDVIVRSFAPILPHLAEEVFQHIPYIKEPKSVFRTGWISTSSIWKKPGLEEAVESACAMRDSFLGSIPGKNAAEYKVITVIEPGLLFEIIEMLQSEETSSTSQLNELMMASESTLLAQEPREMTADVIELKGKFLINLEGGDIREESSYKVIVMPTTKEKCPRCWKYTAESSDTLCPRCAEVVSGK
UniProt Q9H4L5: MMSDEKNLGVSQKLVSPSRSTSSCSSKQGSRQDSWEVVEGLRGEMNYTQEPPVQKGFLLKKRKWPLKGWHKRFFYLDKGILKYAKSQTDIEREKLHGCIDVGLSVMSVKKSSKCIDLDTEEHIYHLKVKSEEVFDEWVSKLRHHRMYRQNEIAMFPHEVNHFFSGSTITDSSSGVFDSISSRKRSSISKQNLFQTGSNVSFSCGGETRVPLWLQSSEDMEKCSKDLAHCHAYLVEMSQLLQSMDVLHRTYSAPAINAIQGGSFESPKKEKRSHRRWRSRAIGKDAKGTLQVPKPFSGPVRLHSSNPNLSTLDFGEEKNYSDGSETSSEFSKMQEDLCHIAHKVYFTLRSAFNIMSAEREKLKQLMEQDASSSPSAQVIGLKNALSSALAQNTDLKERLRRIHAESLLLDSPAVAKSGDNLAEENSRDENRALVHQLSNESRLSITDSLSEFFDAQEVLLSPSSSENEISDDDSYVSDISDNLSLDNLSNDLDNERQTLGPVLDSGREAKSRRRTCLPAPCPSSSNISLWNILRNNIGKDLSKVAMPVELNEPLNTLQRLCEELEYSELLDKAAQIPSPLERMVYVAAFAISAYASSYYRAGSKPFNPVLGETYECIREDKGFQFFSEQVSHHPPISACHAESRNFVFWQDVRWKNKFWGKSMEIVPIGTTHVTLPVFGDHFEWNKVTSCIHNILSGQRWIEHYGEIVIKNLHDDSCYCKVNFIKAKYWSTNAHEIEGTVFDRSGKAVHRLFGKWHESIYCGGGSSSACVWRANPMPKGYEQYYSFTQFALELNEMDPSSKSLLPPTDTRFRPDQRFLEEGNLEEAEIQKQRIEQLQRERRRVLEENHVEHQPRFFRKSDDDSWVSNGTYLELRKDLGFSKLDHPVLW
UniProt Q9HAU4, whole entry: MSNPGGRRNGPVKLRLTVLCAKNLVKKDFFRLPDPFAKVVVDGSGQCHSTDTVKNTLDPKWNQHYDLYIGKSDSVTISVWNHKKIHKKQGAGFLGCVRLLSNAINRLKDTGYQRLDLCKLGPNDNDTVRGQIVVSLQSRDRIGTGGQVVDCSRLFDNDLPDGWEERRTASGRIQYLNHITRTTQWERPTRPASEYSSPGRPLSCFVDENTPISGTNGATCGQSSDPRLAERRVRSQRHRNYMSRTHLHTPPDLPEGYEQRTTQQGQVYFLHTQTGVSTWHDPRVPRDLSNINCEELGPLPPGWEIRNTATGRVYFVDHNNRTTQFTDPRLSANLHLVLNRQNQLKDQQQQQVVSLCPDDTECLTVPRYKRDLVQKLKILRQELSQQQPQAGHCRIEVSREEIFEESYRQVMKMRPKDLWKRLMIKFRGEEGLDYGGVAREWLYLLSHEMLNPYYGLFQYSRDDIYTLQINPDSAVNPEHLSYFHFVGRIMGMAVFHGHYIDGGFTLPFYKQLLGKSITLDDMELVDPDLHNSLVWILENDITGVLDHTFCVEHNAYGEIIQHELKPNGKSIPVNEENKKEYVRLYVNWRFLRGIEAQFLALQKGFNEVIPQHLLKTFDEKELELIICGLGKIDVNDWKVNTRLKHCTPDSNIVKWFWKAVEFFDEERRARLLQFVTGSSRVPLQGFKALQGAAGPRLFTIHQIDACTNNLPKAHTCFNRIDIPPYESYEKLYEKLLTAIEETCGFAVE
UniProt Q9NR33: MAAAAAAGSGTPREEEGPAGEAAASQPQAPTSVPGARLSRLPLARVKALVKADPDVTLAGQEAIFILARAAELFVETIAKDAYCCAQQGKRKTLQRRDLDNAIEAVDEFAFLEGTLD
UniProt Q9NRL2: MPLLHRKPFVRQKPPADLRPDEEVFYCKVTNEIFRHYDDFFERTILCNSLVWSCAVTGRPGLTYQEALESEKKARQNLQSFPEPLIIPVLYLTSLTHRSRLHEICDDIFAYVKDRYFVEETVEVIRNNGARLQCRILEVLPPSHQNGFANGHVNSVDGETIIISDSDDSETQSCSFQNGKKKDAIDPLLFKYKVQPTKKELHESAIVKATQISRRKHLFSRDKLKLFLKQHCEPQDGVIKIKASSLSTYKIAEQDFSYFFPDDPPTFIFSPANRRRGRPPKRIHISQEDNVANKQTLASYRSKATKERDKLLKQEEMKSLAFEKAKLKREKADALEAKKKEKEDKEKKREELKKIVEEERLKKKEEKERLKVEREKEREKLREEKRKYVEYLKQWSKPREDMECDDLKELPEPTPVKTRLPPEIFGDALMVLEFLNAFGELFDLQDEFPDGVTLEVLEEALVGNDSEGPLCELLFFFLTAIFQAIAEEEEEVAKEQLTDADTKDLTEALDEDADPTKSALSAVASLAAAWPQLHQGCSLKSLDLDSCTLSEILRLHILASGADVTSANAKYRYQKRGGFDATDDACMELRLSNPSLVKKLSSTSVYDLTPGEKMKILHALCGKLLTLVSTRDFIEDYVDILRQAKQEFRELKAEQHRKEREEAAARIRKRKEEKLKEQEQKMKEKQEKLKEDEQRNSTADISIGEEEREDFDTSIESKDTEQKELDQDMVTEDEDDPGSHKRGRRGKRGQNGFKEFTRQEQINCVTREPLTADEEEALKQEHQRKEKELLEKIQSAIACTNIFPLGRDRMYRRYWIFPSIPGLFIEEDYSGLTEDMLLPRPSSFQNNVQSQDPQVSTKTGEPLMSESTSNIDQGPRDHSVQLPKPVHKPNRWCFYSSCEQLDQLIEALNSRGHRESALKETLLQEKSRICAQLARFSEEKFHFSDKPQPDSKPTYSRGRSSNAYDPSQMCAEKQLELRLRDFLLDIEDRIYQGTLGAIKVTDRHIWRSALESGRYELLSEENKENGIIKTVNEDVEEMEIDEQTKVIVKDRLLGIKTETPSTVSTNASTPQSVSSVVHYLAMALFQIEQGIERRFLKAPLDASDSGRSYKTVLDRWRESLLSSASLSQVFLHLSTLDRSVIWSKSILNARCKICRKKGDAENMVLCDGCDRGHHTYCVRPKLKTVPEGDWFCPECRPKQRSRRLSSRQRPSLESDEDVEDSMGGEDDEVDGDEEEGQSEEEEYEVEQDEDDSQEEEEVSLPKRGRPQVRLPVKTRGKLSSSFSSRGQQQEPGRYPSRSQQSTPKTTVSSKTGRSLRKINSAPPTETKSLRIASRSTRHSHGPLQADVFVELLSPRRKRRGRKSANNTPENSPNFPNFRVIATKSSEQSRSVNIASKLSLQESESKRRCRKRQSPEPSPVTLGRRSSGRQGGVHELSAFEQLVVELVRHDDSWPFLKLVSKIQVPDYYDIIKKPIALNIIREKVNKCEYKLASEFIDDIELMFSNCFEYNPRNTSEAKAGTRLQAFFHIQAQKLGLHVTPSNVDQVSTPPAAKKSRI

The list shows a part of the results, in another mix than the full data.

Compound in this assay: COC(=O)C#Cc1ccccc1 [methyl 3-phenylpropiolate]
Briefly: log2 ratio of iodoacetamide-alkyne labeling of the cysteine site, DMSO over compound (competition); higher = stronger covalent engagement of the cysteine by the compound, active = 1 or more. As to conditions: 500 µM; treatment time 1 h; system: HEK293T cell lysate. Put shortly: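 Reporter intensities give each cysteine's log2 competition ratio as the mean of control channels over the mean of compound channels. The samples were HEK293T lysate (2 mg/mL) given vehicle or electrophile (500 µM, 1 h, ambient temperature), then iodoacetamide alkyne (1 h), followed by click coupling to sCIP-TMT reagents, pooling, trypsin digestion overnight at 37 °C, streptavidin enrichment, acid elution, Orbitrap Eclipse LC-MS/MS with FAIMS and FragPipe quantification. Duplicate channels and three replicates were run, and cysteines quantified in only one replicate were discarded.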
C11orf68 C199 (UniProt Q9H3H3): the “log2 ratio of iodoacetamide-alkyne labeling” value (“log2 ratio” below) is inactive: -0.0264.

STARD7 C362 (UniProt Q9NQZ5): the “log2 ratio” value was inactive: 0.426.

As to EIF2B3 C64 (UniProt Q9NR50), the “log2 ratio” value is inactive: 0.548.

For the target BIRC6 C1357 (UniProt Q9NR09), the “log2 ratio” value is inactive: -0.0125.

For LUC7L C43 (UniProt Q9NQ29), the “log2 ratio” value is inactive: 0.236.

As for UNC45A C426 (UniProt Q9H3U1), the “log2 ratio” value was inactive: 0.396.

For the target EHD1 C138 (UniProt Q9H4M9), the “log2 ratio” value was inactive: 0.114.

As to POLE3 C51 (UniProt Q9NRF9), the “log2 ratio” value was inactive: 0.0109.

MCCC2 C167 (UniProt Q9HCC0): the “log2 ratio” value is inactive: 0.195.

For MBNL1 C53 (UniProt Q9NR56), the “log2 ratio” value was inactive: 0.189.

Regarding SARS2 C66 (UniProt Q9NP81), the “log2 ratio” value was inactive: 0.211.

Regarding SCAF1 C950 (UniProt Q9H7N4), the “log2 ratio” value was inactive: 0.462.

In the case of SFXN1 C190 (UniProt Q9H9B4), the “log2 ratio” value is inactive: 0.345.

On to UniProt Q9NSY1_C912, for which the “log2 ratio” value was inactive: 0.827.

Regarding IARS2 C155 (UniProt Q9NSE4), the “log2 ratio” value was inactive: 0.532.

Regarding SH3GLB2 C172 (UniProt Q9NR46), the “log2 ratio” value was inactive: 0.184.

Turning to LANCL2 C169 (UniProt Q9NS86), the “log2 ratio” value was inactive: 0.171.

For the target EIF4ENIF1 C767 (UniProt Q9NRA8), the “log2 ratio” value was inactive: 0.377.

Consider CACYBP C173 (UniProt Q9HB71), for which the “log2 ratio” value was inactive: 0.182.

Turning to MDN1 C271 (UniProt Q9NU22), the “log2 ratio” value is inactive: 0.728.

As to SMC4 C271 (UniProt Q9NTJ3), the “log2 ratio” value is inactive: -0.564.

For OSBPL3 C520 (UniProt Q9H4L5), the “log2 ratio” value is inactive: 0.0937.

EML4 C82 (UniProt Q9HC35): the “log2 ratio” value is inactive: 0.381.

HELLS C836 (UniProt Q9NRZ9): the “log2 ratio” value was inactive: 0.353.

As for LRRC40 C227 (UniProt Q9H9A6), the “log2 ratio” value was inactive: 0.34.

With PPA2 C161 (UniProt Q9H2U2), the “log2 ratio” value was inactive: -0.42.

With UniProt Q9HAU4_C293, the “log2 ratio” value was inactive: 0.257.

Turning to POLE4 C84 (UniProt Q9NR33), the “log2 ratio” value is inactive: -0.0179.

As for SMYD3 C421 (UniProt Q9H7B4), the “log2 ratio” value was inactive: 0.00903.

On to RANBP3 C203 (UniProt Q9H6Z4), for which the “log2 ratio” value is inactive: 0.21.

As for BAZ1A C547 (UniProt Q9NRL2), the “log2 ratio” value was inactive: 0.396.

Consider MRPL44 C53 (UniProt Q9H9J2), for which the “log2 ratio” value was inactive: -0.0312.

On to PNN C249 (UniProt Q9H307), for which the “log2 ratio” value is inactive: 0.621.

Take NEK6 C40 (UniProt Q9HC98): the “log2 ratio” value is inactive: 0.426.

As for SCAF1 C675 (UniProt Q9H7N4), the “log2 ratio” value was inactive: 0.509.

On to PPA2 C44 (UniProt Q9H2U2), for which the “log2 ratio” value is inactive: 0.00147.

Turning to SMARCAD1 C772 (UniProt Q9H4L7), the “log2 ratio” value is active: 1.
